We go through one sequence from paper PMC5996148.

The other results are listed elsewhere or left out.

Test systems include C6orf89 (human); C7orf13 (human); C7orf24 (human); C7orf25 (human); C7orf27 (human); C7orf30 (human); C7orf36 (human); C7orf41 (human); C7orf42 (human); C7orf45 (human).
Holding throughout (assay): protein microarray (ProtoArray v5.0), streptavidin-Alexa Fluor 647
What all share (details): 3'-biotin; 20 mM Tris (pH 7.5), 5 mM MgCl2, 100 mM KCl, 0.1% Tween-20, A/T-rich and random oligonucleotide blockers; temperature not stated; high values mean tight binding

Consider “GGGAGGCTGAGGCAGG [G4-1 biotinylated (PQS2)]”, for which the binding signal was -0.346 z-score in the test with C6orf89 (human); -0.313 z-score in the test with C7orf13 (human); -0.331 z-score in the test with C7orf24 (human); -0.253 z-score in the test with C7orf25 (human); -0.329 z-score in the test with C7orf27 (human); -0.334 z-score in the test on C7orf30 (human). For the same sequence, the binding signal in the test with C7orf36 (human) was -0.361 z-score; in the test on C7orf41 (human), -0.364 z-score; in the test on C7orf42 (human) it was -0.271 z-score; in the test on C7orf45 (human), -0.306 z-score.
